# Counter-ions that a name gives are not always drawn. Like-named read-outs stand apart in the source and are kept apart here. Among all 3,300 compounds or so, about 95 (3%) showed an effect of 50% or more. Some of the results follow.
# Tested on: HCoV-229E
# Parameters: species or system Huh-7; HTS, protection from HCoV-229E induced cell death, luminescent cell viability (CellCounting-Lite 2.0), inhibition rate
# Conditions: 24 h post infection, 1 h compound pre-incubation, 10 µM, inhibitor
Compound,229E Inhibition rate [%],"229E Inhibition rate (229E Inhibition rate, 24 h) [%]"
COc1ccc(-c2oc3c(CCC(C)(C)O)c(O[C@@H]4O[C@H](CO)[C@@H](O)[C@H](O)[C@H]4O)cc(O)c3c(=O)c2O)cc1 [Maohuoside A],10.4,–
"CC1C(=O)CCC1=O [2-Methylcyclopentane-1,3-dione]",19.8,–
C[C@@H]1O[C@@H](O[C@H]2[C@H](O[C@H]3CC[C@]4(C)[C@H]5CC=C6[C@@H]7CC(C)(C)CC[C@]7(C(=O)O[C@@H]7O[C@H](CO[C@@H]8O[C@H](CO)[C@@H](O[C@@H]9O[C@@H](C)[C@H](O)[C@@H](O)[C@H]9O)[C@H](O)[C@H]8O)[C@@H](O)[C@H](O)[C@H]7O)CC[C@@]6(C)[C@]5(C)CC[C@H]4C3(C)C)OC[C@H](O)[C@@H]2O)[C@H](O)[C@H](O)[C@H]1O [Hederasaponin B],12.8,–
N[C@@H](Cc1ccc(O)cc1)C(=O)O [L-Tyrosine],4.6,–
O=c1c(O)cc([C@H]2Oc3cc(O)cc(O)c3C[C@H]2O)cc2c([C@H]3Oc4cc(O)cc(O)c4C[C@H]3O)cc(O)c(O)c12 [Theaflavin],10.5,–
COc1cc([C@H]2OC[C@@H]3[C@@H]2CO[C@H]3c2cc(OC)c(O[C@@H]3O[C@H](CO)[C@@H](O)[C@H](O)[C@H]3O)c(OC)c2)cc(OC)c1O[C@@H]1O[C@H](CO)[C@@H](O)[C@H](O)[C@H]1O [Eleutheroside E],29,–
CC(C)(C)CC(C)(C)c1ccc(O)c(Cc2ccc(Cl)cc2Cl)c1 [Clofoctol],4.5,–
O=C(/C=C/c1ccc(O)c(O)c1)O[C@@H](C(=O)O)[C@@H](OC(=O)/C=C/c1ccc(O)c(O)c1)C(=O)O [Chicoric acid],–,8
CCCCCCCCCCCCCCCCCCCCCCCC(=O)O [Lignoceric acid],9.2,–
C[C@H](CC[C@@H](O[C@@H]1O[C@H](CO)[C@@H](O)[C@H](O)[C@H]1O)C(C)(C)O)[C@H]1CC[C@@]2(C)[C@@H]3CC=C4[C@@H](CC[C@H](O)C4(C)C)[C@]3(C)[C@H](O)C[C@]12C [Mogroside I A1],26.1,–
CC1(C)CC[C@]2(CO)CC[C@]3(C)C(=CC[C@@H]4[C@@]5(C)CC[C@H](O)C(C)(C)[C@@H]5CC[C@]43C)[C@@H]2C1 [Erythrodiol],18.3,–
C[C@H]1[C@H](C)CC[C@]2(C(=O)O)CC[C@]3(C)C(=CC[C@@H]4[C@@]5(C)C[C@@H](O)[C@H](O)[C@@](C)(CO)[C@@H]5CC[C@]43C)[C@H]12 [Asiatic acid],10,–
COc1cc2c(c(OC)c1OC)-c1c(cc3c(c1OC)OCO3)[C@H](OC(=O)c1ccccc1)[C@@](C)(O)[C@@H](C)C2 [Gomisin G],15.9,–
O=C(O)/C=C/C=C/C(=O)O [trans-trans-Muconic acid],14.2,–
O=C(O)c1ncccc1O [3-Hydroxypicolinic acid],21.6,–
COc1ccc(O)c(N)c1 [2-Amino-4-methoxyphenol],9.6,–

Compound,229E Inhibition rate [%],"229E Inhibition rate (229E Inhibition rate, 24 h) [%]"
"O=C(O)C(O)c1ccc(O)c(O)c1 (stereo not shown) [3,4-Dihydroxymandelic acid]",47.7,–
NCCCC[C@H](N)C(=O)O [L-Lysine hydrochloride],–,8.4
C[C@@H]1O[C@@H](O[C@H]2[C@H](Oc3cc(O)c4c(c3)O[C@H](c3ccc(O)c(O)c3)CC4=O)O[C@H](CO)[C@@H](O)[C@@H]2O)[C@H](O)[C@H](O)[C@H]1O [Neoeriocitrin],11.2,–
O=c1c(-c2ccc(O[C@@H]3O[C@H](CO)[C@@H](O)[C@H](O)[C@H]3O)cc2)coc2cc(O)cc(O)c12 [Sophoricoside],31.3,–
CCCCCCCCCCCCCCCC=O [Hexadecanal],36.4,–
C[C@H]1O[C@@H](Oc2ccc(COC(=O)CC(O)(CC(=O)OCc3ccc(O[C@@H]4O[C@H](CO)[C@@H](O)[C@H](O)[C@H]4O)cc3)C(=O)Oc3ccc(O[C@H]4O[C@H](CO)[C@@H](O)[C@H](O)[C@H]4O)cc3)cc2)[C@H](O)[C@@H](O)[C@@H]1O (stereo partly shown) [Parishin],9.7,–
Oc1cc(O)c2c(c1)O[C@H](c1ccc(O)c(O)c1)[C@H](O)[C@H]2c1c(O)cc(O)c2c1O[C@H](c1ccc(O)c(O)c1)[C@H](O)[C@H]2c1c(O)cc(O)c2c1O[C@H](c1ccc(O)c(O)c1)[C@H](O)C2 [Procyanidin C1],0,–
COc1cccc2c1cc([N+](=O)[O-])c1c(C(=O)O)cc3c(c12)OCO3 [Aristolochic acid A],11.8,–
C=C1C[C@@]23CC[C@H]4[C@@](C)(CCC[C@@]4(C)C(=O)O)[C@@H]2CC[C@]1(O[C@@H]1O[C@H](CO)[C@@H](O)[C@H](O)[C@H]1O[C@@H]1O[C@H](CO)[C@@H](O)[C@H](O)[C@H]1O)C3 [Steviolbioside],5.6,–
CC1(C)CC[C@]2(C(=O)O[C@@H]3O[C@H](CO)[C@@H](O)[C@H](O)[C@H]3O)CC[C@]3(C)C(=CC[C@@H]4[C@@]5(C)CC[C@H](O[C@@H]6O[C@H](C(=O)O)[C@@H](O[C@@H]7O[C@@H](CO)[C@H](O)[C@H]7O)[C@H](O)[C@H]6O)C(C)(C)[C@@H]5CC[C@]43C)[C@@H]2C1 [Araloside A],12,–
C/C=C/C/C=C/CCC(=O)[C@H]1O[C@H]1C(N)=O [Cerulenin],29.4,–
C/C=C(/C)C(=O)O[C@H]1[C@@H](OC(C)=O)c2c(ccc3ccc(=O)oc23)OC1(C)C [Praeruptorin A],19.1,–
CC(=O)Nc1ccn([C@@H]2O[C@H](CO)[C@@H](O)[C@H]2O)c(=O)n1 [N4-Acetylcytidine],18.2,–
C=C1CC[C@@H]2[C@](C)(COC(=O)CCC(=O)O)[C@H](OC(=O)CCC(=O)O)CC[C@@]2(C)[C@@H]1/C=C/C1=CCOC1=O [Kalii Dehydrographolidi Succinas],6.7,–
Cc1c[nH]c(=O)[nH]c1=O [Thymine],0,–

# Single entries from the list.
# `C/C=C(/C)C(=O)O[C@H]1[C@@H](OC(C)=O)c2c(ccc3ccc(=O)oc23)OC1(C)C` [Praeruptorin A] – 229E Inhibition rate [%]: 19.1
# `NCCCC[C@H](N)C(=O)O` [L-Lysine hydrochloride] – 229E Inhibition rate (229E Inhibition rate, 24 h) [%]: 8.4

# From PMC12431657, “Discovery and mechanistic insights of dibenzoylmethane as a broad spectrum inhibitor of coronavirus” (PLOS Pathogens, 2025)
